# Patent US20220175675A1, “ENCAPSULATING MOLECULES IN FAT GLOBULES” (The Regents of the University of California, priority 2019, published 2022)
# Test: Multi-photon fluorescence microscopy of DMEQ-TAD-labelled VD3 in MFGs
# Conditions: DMEQ-TAD-labelled VD3, bovine MFGs; listed as VD3
compound,measurement,value
C=C1CC[C@H](O)C/C1=C/C=C1\CCC[C@]2(C)[C@@H]([C@H](C)CCCC(C)C)CC[C@@H]12 [Cholecalciferol],distribution of VD3 fluorescent signal in MFGs,even distribution of fluorescent signal through the structure of MFGs; also recorded: homogenous localization

# Entries after “also recorded” stand apart in the source; their conditions may differ.
